{
  "sequences": {"note": "Sequences of proteins named here, by UniProt entry; tags and fusion partners are left off. Residues count along the entry.", "UniProt P02452, 162-1218 limits assumed": "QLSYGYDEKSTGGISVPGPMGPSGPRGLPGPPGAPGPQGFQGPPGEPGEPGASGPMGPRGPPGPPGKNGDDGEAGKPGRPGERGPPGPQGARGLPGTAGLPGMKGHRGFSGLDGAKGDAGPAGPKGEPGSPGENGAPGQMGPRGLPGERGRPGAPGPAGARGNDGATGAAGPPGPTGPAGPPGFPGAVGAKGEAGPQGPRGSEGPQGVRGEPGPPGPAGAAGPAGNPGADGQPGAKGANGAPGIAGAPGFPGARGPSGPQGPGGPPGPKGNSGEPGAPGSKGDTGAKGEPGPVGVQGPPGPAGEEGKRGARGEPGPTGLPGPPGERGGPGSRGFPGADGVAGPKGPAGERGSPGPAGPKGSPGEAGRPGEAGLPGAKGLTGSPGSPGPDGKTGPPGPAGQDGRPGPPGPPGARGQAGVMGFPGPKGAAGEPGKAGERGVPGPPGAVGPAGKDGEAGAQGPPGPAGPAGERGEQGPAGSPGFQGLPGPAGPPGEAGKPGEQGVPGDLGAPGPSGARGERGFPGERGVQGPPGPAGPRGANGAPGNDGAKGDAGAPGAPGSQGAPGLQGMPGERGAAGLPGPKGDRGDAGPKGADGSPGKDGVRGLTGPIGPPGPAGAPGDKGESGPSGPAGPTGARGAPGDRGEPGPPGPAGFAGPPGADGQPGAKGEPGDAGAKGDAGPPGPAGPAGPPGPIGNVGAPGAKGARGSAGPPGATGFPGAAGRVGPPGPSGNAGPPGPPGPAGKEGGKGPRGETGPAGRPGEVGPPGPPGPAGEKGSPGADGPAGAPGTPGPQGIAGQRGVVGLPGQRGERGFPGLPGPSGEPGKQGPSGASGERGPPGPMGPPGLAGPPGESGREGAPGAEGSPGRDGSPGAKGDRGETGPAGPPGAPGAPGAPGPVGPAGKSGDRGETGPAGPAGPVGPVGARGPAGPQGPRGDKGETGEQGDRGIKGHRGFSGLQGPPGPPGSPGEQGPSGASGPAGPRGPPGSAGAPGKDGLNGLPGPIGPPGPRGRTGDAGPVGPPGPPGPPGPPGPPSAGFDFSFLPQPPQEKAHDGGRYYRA", "UniProt P08123, 80-1119 limits assumed": "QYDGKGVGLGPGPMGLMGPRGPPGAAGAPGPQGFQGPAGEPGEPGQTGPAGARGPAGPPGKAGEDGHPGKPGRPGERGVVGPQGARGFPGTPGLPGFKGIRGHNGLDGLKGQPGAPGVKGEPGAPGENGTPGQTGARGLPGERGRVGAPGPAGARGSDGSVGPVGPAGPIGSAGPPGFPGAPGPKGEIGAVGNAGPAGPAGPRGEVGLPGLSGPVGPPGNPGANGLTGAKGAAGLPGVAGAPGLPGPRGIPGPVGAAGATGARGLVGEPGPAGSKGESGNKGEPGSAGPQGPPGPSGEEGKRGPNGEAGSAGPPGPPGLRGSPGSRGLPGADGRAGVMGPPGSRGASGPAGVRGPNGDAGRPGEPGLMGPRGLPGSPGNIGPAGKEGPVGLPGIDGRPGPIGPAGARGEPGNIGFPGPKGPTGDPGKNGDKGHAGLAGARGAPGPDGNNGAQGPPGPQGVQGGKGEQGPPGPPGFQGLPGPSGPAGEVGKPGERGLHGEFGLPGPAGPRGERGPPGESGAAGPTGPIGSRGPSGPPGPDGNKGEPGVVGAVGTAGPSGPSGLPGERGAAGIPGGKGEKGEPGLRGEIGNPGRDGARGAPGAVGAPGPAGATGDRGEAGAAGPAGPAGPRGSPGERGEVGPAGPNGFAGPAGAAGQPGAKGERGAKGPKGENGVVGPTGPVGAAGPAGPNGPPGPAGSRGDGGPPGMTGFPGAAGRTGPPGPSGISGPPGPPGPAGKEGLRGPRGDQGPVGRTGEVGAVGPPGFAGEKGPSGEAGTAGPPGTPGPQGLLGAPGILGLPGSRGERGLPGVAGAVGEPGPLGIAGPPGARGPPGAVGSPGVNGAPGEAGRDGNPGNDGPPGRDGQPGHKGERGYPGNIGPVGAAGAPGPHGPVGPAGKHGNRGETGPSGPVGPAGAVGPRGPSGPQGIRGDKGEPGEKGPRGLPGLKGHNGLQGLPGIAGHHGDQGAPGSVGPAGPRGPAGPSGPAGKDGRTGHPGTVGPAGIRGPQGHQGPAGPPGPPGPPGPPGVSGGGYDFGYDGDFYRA"},
  "source": "patent US20240043489A1",
  "about": "“Cytokine Prodrugs Comprising a Cleavable Linker” (Trutino Biosciences Inc., priority 2020, published 2024)",
  "origin": "cited, not measured here",
  "target": "Collagen type I (Homo sapiens, UniProt P02452+P08123)",
  "details": "binds to Collagen type I; Note 1 of Table 2; tight binding; cited from earlier work",
  "note": "The match of structure and compound is tentative.",
  "data": [
    {"smiles": "CC[C@H](C)[C@H](NC(=O)[C@H](CS)NC(=O)[C@H](CCCCN)NC(=O)[C@H](Cc1ccc(O)cc1)NC(=O)[C@H](CC(C)C)NC(=O)[C@H](CCC(=O)O)NC(=O)CNC(=O)[C@H](C)NC(=O)[C@H](CCCCN)NC(=O)[C@H](CC(C)C)NC(=O)[C@H](C)NC(=O)[C@H](C)NC(=O)[C@H](CC(N)=O)NC(=O)[C@H](C)NC(=O)[C@H](CCCNC(=N)N)NC(=O)[C@@H](N)CCCNC(=N)N)C(=O)N[C@@H](CC(C)C)C(=O)N[C@@H](Cc1ccc(O)cc1)C(=O)NCC(=O)N[C@@H](CS)C(=O)O", "values": [
      {"measurement": "Kd", "value": 10, "unit": "nM"}
    ]}
  ]
}
